From PubChem BioAssay AID2685 (National Center for Advancing Translational Sciences (NCATS), 2010) come the findings set out here.

This experiment is described as follows: qHTS Assay for Lipid Storage Modulators in Drosophila S3 Cells.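 As to cell number change: cells counted by Cell Tracker Red CMTPX staining in the red channel.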 Particulars: BODIPY lipid droplet fluorescence, 18-24 h; for cell number change: measured here: cell count max response, cells fed with added oleic acid. In a few lines: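 Laser-scanning cytometry quantifies lipid droplet accumulation (500–530 nm total intensity; droplet/cell object ratio) in oleic acid-fed (400 uM added) Drosophila S3 cells treated with a concentration series. 20 uM Triacsin C defined 100% inhibition.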

[1] abbreviates: measured here: lipid fluorescence (Fed channel) AC50, cells fed with added oleic acid.
Setting [2] is: measured here: cell number channel AC50, cells fed with added oleic acid.

SMILES strings stand for the structures. The list shows a part of the results. Further columns of the screen follow, without active or inactive calls. The list favours compounds with an active or inconclusive main result. Potencies come from curve fits of mixed quality, noted in brackets.

Take `COc1cccc(/C=C/C(=O)NNC(=O)c2ccncc2)c1OC`: the cell number change came to 17.1%. For the same compound, the AC50 under setting [1] is 5.17 µM [rising, full curve].

On to `Cc1nn(CC(=O)NCCC2=CCCCC2)c(C)c1[N+](=O)[O-]`, for which the cell number change is -38.2%. For the same compound, the AC50 under setting [2] is 0.0517 µM [falling, full curve, poor fit].

In the case of `CCCSc1nsc(NC(=O)C(c2ccccc2)c2ccccc2)n1`, the cell number change is -144%. Besides, the AC50 under setting [2] was 29.1 µM [falling, single point]. Moreover, under setting [1], the AC50 was 29.1 µM [falling, single point].

As for `Cc1ccc(-n2nnnc2SCC(=O)Nc2sc(C)c(C)c2C#N)cc1C`, the half-maximal activity concentration (AC50) under setting [1] is 2.06 µM [rising, partial curve].

With `COc1ccc(OCC(=O)NCC(c2ccc(OC)cc2)N2CCCCC2)cc1` (stereo not given), the cell number change worked out at 20.3%.

`COCCCNC(=O)CSc1ccc(Cl)cc1`: the cell number change was -185%. The AC50 under setting [2] was 25.9 µM [falling, partial curve]. Moreover, the AC50 under setting [1] is 29.1 µM [falling, partial curve].

As to `Nc1ccc(O)cc1C(=O)OCC(=O)C12CC3CC(CC(C3)C1)C2`, the cell number change is -15.1%. Moreover, the AC50 under setting [1] is 0.58 µM [falling, full curve, poor fit].

Turning to `CC(=O)c1cccc(S(=O)(=O)N2CCN(c3nc4cc(C)cc(C)c4cc3C#N)CC2)c1`, the cell number change was 2.1%. The AC50 under setting [1] is 0.103 µM [rising, full curve, poor fit].

With `COc1ccccc1C1(O)CCN(CC(=O)Nc2c(C)nn(C)c2C)CC1`, the cell number change came to 12.6%. For the same compound, under setting [1], the AC50 was 7.31 µM [rising, full curve, poor fit].

For the compound `Cc1ccc(C(=O)N2CCSCC2)cc1`, the cell number change came to 0.533%. Besides, the AC50 under setting [1] was 0.651 µM [falling, full curve].

On to `Cn1c(C(=O)N2CCOCC2)cc2c(=O)n3ccccc3nc21`, for which the cell number change was -4.86%.

In the case of `COc1ccc(N=C2C(=O)Nc3c(C)cccc32)cc1`, the cell number change is 25.6%. Besides, the AC50 under setting [1] is 0.82 µM [falling, single point].

For the compound `COc1ccc(OC)c(-c2csc(NC(=O)CN3C(=O)NC4(CCCC4)C3=O)n2)c1`, the cell number change is -18%.

With `COC(=O)c1c(-c2ccccc2)csc1N1C(=O)Nc2ccccc2N1O`, the cell number change is -4.09%. Further, the AC50 under setting [1] was 1.84 µM [falling, single point].

In the case of `CCN1CCN(CCNC(=O)CSCc2nc(-c3ccc(OC)c(OC)c3)oc2C)CC1`, the cell number change was 0.799%. Under setting [1], the AC50 was 18.4 µM [rising, partial curve].

In the case of `O=C(COC(=O)c1ccccc1O)Nc1ccc(S(=O)(=O)N2CCCCC2)cc1`, the AC50 by setting is: under setting [2], 0.092 µM [falling, full curve, poor fit]; under setting [1], 0.13 µM [falling, full curve, poor fit].

With `C=CCN1C=CC(=CC=C(C#N)C#N)C=C1`, the cell number change is -42.8%. In addition, under setting [2], the AC50 is 7.31 µM [falling, partial curve]. In addition, the AC50 under setting [1] was 29.1 µM [falling, single point].

On to `CC(=O)c1ccc2c(c1)CC(C)C(=O)N2C` (stereo not given), for which the cell number change was 3.83%. The AC50 under setting [1] is 0.13 µM [falling, full curve, poor fit].

`CSc1ccc(CCNS(=O)(=O)c2ccc3c(c2)C(C)(C)C(=O)N3C)cc1`: the cell number change was found to be 1.9%. Further, the AC50 under setting [1] was 29.1 µM [rising, single point].

For `COc1ccc(NC(=O)Cc2coc3cc(C)ccc23)cn1`, the cell number change is -17.9%. The AC50 under setting [1] is 0.651 µM [falling, partial curve, poor fit].

Turning to `CCC(=O)N1CCc2cc(S(=O)(=O)N3CCCCC3CC)ccc21` (stereo not given), the cell number change was -11.3%. The AC50 under setting [2] is 6.51 µM [falling, single point].

For `CCCCOc1ccc(N=Nc2ccc(N)nc2N)cn1`, the cell number change is -32.5%. In addition, the AC50 under setting [2] was 16.4 µM [falling, single point]. The AC50 under setting [1] is 1.84 µM [rising, full curve, poor fit].

As for `COc1cccc(C(=O)NC(C)CCc2ccccc2)c1` (stereo not given), the cell number change came out at 18.1%. In addition, the AC50 under setting [1] is 29.1 µM [falling, single point].

Turning to `O=c1c2c(c(-c3ccccc3)nn1Cc1ccccc1)CCCC2`, the cell number change was determined as 14.2%. In addition, the AC50 under setting [2] was 1.46 µM [rising, partial curve]. Further, under setting [1], the AC50 was 1.46 µM [rising, partial curve].

Regarding `Cc1ccc(NC(=O)CN2CCCC2)cc1`, the cell number change was 2.05%. Also, the AC50 under setting [1] is 4.61 µM [rising, single point].

`CCCCC(=O)Nc1nnc(S(=O)(=O)N(C)Cc2ccco2)s1`: the AC50 under setting [1] was 29.1 µM [rising, single point].

Take `COC(=O)c1ccc(NS(=O)(=O)c2ccccc2)o1`: the cell number change is -9.63%. The AC50 under setting [1] was 2.59 µM [falling, single point].

In the case of `Cc1cccc(OCc2nnc(SCC(=O)c3c(N)n(C4CC4)c(=O)[nH]c3=O)o2)c1`, the cell number change was -15.5%.

Turning to `O=C(CSc1nc2nc(-c3cccs3)cc(C(F)(F)F)c2c(=O)[nH]1)C(F)(F)F`, the cell number change was -17.4%. Also, the AC50 under setting [1] was 32.6 µM [falling, single point].

With `Cc1cc(/C=N/NC(=O)c2cccc(F)c2)c(C)n1-c1ccccc1`, the cell number change stood at 80.1%. The AC50 under setting [2] was 29.1 µM [rising, single point].

In the case of `Cc1c(NC(=O)COC(=O)c2ccc(F)c(S(=O)(=O)N3CCOCC3)c2)c(=O)n(-c2ccccc2)n1C`, the AC50 under setting [1] is 4.61 µM [falling, partial curve].

With `CCOC(=O)N1CCN(Cc2nc3cc([N+](=O)[O-])ccc3n2C)CC1`, the AC50 under setting [1] was 0.13 µM [falling, full curve, poor fit].

On to `CCCCN(C(=O)c1ccc(S(=O)(=O)N(C)C)cc1)c1nc2ccccc2s1`, for which the cell number change was found to be 1.83%. For the same compound, the AC50 under setting [1] is 2.06 µM [rising, full curve, poor fit].

`O=C(Nc1ccc(N2C(=O)C3C4C=CC(C4)C3C2=O)cc1)Nc1cccnc1` (stereo not given): the concentration at half-maximal activity (AC50) under setting [1] was 0.461 µM [falling, single point].

`c1ccc(Nc2nc3ccccc3o2)cc1`: the AC50 under setting [2] was 4.61 µM [falling, single point].

For the compound `O=C(CSc1nn(-c2ccc(F)cc2)c(=S)s1)NCC1CCCO1` (stereo not given), the cell number change is -42.3%. Further, under setting [2], the AC50 is 32.6 µM [falling, single point]. Besides, the AC50 under setting [1] was 18.4 µM [falling, partial curve, poor fit].

`CC(CCc1ccccc1)NC(=O)[C@@H]1Cc2ccccc2CN1` (stereo not given in full): the cell number change is -9.22%.

Consider `O=C(O)CC1c2ccccc2C=Cc2ccccc21`, for which the cell number change was -5.79%. Moreover, the AC50 under setting [1] is 8.2 µM [rising, partial curve].

As for `CCS(=O)(=O)N1Cc2ccccc2CC1C(=O)N(C)Cc1ccc(OC)cc1OC` (stereo not given), the cell number change was found to be 1.25%. For the same compound, the AC50 under setting [1] was 0.411 µM [falling, partial curve].

As for `COc1cccc(-c2nc(N3CCC(C)CC3)c3ccccc3n2)c1O`, the cell number change is -24.6%. The AC50 under setting [1] is 29.1 µM [falling, single point].

Take `Cc1cc(OCCn2nc(C(=O)O)c3ccccc3c2=O)ccc1C(C)C`: the cell number change is -1.21%. In addition, the AC50 under setting [1] is 23.1 µM [falling, partial curve].

On to `O=C(COC(=O)c1ccco1)NCc1ccc(F)cc1`, for which the cell number change was -20.8%. Also, under setting [1], the AC50 was 23.1 µM [falling, single point].

In the case of `COc1ccc([C@H]2CC(=O)C=C(c3cccc(C(C)C)c3)C2)cc1OC`, the cell number change is -3.62%. Also, the AC50 under setting [1] was 10.3 µM [falling, single point].

Regarding `CCCCn1c(N)c(N(CCC(C)C)C(=O)c2ccc3c(c2)OCO3)c(=O)[nH]c1=O`, the cell number change was -10.3%.

Consider `C=CCn1c(C)cc(-c2csc(NCC)n2)c1C`, for which the cell number change is -30.5%.

Turning to `Cc1cccc(CCNS(=O)(=O)c2ccc(S(=O)(=O)NC3CCCC3)cc2)c1`, the cell number change was -12.5%. Besides, the AC50 under setting [1] is 4.11 µM [rising, single point].

For the compound `C[C@H](NC(=O)c1nc[nH]c1C(=O)NC1CCNCC1)C(=O)OC(C)(C)C`, the cell number change stood at 6.34%. Moreover, under setting [1], the AC50 is 29.1 µM [rising, single point].

Take `O=C(c1ccco1)N1CCN(C(=O)c2cnn3c2NC(c2cccs2)CC3C(F)(F)F)CC1` (stereo not given): the AC50 under setting [1] was 23.1 µM [rising, partial curve].

Turning to `COCC(=O)Nc1c(C(=O)N2CCCC2)oc2ccccc12`, the cell number change is 24.1%. Also, under setting [1], the AC50 is 18.4 µM [rising, single point].

For `Cc1cccc(Nc2ccc3nonc3c2[N+](=O)[O-])c1C`, the cell number change worked out at 42.3%. Moreover, the AC50 under setting [2] is 0.116 µM [rising, full curve].

For the compound `CC(C)N(Cc1nccn1C)C(=O)c1ccc2oc(Cc3ccccc3)nc2c1`, the cell number change was -4.69%. Also, the AC50 under setting [1] was 0.146 µM [falling, full curve].

In the case of `Cc1ccc2nc(/C(C#N)=C/c3ccc(-c4cccc([N+](=O)[O-])c4)o3)[nH]c2c1`, the cell number change was -15.5%. For the same compound, under setting [2], the AC50 is 6.51 µM [falling, single point]. Besides, under setting [1], the AC50 is 4.61 µM [falling, full curve].

As for `Cc1ccccc1S(=O)(=O)Cc1ccc(C(=O)NC(C)c2ccc3c(c2)OCCO3)o1` (stereo not given), the cell number change amounted to 31.4%. The AC50 under setting [1] was 0.82 µM [rising, full curve, poor fit].

With `Cc1nn(C)c(C(=O)N/N=C/c2ccc(Br)cc2)c1Cl`, the cell number change is 9.49%. Moreover, the AC50 under setting [1] was 6.51 µM [falling, partial curve].

On to `CCOc1cc(N2CCOCC2)c(OCC)cc1NC(=O)CN1C(=O)C2CC=CCC2C1=O` (stereo not given), for which the cell number change was found to be 20.4%. Moreover, under setting [2], the AC50 is 0.164 µM [rising, full curve, poor fit]. Further, the AC50 under setting [1] was 0.184 µM [rising, full curve, poor fit].

With `CC(C)[C@H](NC(=O)N1CC(=O)Nc2ccccc21)C(=O)N[C@H](Cc1c[nH]c2ccccc12)C(=O)O`, the cell number change came to 8.13%. Besides, the AC50 under setting [2] is 0.146 µM [rising, full curve, poor fit].

For the compound `O=C(O)c1cccc(CSc2n[nH]c(-c3ccc(Cl)cc3Cl)n2)c1`, the cell number change came out at 26.1%. The AC50 under setting [1] was 32.6 µM [rising, single point].

Regarding `CCOc1ccc(NC(=O)C(C)NC(=O)c2ccccc2Cl)cc1S(=O)(=O)N1CCCC1` (stereo not given), the cell number change came out at 11.6%. In addition, under setting [1], the AC50 is 16.4 µM [rising, partial curve].

Regarding `Cc1ccc(Nc2c(-c3ccccc3O)nc3cnccn23)cc1`, the cell number change is -9.04%. Moreover, the AC50 under setting [2] is 1.84 µM [falling, single point]. Further, under setting [1], the AC50 is 5.17 µM [falling, single point].

As for `Cc1cccc2c(N=O)c(O)n(CCc3ccccc3)c12`, the cell number change is -14.2%. The AC50 under setting [1] was 29.1 µM [falling, single point].
